The results in this text go back to PMC10462243.

Protein sequences, listed by entry. Tags and fused reporters are not part of them.
UniProt Q13620: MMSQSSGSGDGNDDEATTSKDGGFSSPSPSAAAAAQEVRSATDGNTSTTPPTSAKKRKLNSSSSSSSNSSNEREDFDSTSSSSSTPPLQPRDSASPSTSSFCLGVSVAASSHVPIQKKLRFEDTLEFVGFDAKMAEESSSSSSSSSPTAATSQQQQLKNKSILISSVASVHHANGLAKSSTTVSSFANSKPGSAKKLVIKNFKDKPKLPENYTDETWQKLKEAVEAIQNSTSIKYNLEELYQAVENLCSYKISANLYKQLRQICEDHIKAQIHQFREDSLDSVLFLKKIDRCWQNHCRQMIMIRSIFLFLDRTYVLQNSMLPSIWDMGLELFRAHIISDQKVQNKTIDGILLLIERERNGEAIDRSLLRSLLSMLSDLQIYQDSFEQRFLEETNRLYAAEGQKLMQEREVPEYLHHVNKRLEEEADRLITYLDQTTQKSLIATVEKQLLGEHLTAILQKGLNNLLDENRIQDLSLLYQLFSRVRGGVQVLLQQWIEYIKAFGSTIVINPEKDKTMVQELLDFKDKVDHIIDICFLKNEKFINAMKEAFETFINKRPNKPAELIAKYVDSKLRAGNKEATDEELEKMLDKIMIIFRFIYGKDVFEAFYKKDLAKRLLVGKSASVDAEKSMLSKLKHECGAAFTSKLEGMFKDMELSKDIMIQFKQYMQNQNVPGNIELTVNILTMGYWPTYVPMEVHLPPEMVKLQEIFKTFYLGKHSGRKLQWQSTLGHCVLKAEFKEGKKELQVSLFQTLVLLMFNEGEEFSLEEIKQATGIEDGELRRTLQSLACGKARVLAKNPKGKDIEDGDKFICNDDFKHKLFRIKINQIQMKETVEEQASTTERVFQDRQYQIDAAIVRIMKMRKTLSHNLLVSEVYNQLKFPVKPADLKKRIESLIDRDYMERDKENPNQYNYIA
UniProt Q16531: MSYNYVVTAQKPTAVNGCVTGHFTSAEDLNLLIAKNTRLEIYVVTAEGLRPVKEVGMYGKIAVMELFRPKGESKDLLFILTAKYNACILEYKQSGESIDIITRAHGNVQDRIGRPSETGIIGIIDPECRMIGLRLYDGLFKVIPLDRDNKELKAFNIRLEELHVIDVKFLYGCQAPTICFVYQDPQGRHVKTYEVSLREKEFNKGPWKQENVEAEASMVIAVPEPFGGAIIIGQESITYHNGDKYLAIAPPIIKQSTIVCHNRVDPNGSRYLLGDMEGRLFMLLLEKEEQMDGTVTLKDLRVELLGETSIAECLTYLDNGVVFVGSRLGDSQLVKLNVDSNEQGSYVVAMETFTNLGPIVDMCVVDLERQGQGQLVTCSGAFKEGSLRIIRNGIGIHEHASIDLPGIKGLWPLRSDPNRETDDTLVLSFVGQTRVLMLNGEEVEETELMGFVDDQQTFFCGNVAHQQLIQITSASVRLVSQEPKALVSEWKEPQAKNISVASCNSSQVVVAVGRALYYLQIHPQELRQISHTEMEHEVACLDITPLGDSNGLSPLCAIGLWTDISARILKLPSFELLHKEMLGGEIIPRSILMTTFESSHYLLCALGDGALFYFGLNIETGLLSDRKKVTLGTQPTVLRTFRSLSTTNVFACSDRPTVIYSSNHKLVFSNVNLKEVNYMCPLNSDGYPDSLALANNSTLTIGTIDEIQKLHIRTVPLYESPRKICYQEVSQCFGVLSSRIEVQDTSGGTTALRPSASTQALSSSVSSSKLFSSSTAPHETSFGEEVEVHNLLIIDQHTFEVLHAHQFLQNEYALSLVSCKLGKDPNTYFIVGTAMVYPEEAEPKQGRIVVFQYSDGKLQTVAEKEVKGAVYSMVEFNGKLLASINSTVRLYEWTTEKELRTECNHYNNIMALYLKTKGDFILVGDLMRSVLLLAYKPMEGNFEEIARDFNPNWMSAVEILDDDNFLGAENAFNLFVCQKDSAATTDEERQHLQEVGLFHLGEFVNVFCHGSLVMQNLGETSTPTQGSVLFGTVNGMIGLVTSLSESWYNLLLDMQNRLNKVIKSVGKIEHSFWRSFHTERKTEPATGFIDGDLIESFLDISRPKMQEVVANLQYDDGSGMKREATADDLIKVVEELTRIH
UniProt Q9Y4B6: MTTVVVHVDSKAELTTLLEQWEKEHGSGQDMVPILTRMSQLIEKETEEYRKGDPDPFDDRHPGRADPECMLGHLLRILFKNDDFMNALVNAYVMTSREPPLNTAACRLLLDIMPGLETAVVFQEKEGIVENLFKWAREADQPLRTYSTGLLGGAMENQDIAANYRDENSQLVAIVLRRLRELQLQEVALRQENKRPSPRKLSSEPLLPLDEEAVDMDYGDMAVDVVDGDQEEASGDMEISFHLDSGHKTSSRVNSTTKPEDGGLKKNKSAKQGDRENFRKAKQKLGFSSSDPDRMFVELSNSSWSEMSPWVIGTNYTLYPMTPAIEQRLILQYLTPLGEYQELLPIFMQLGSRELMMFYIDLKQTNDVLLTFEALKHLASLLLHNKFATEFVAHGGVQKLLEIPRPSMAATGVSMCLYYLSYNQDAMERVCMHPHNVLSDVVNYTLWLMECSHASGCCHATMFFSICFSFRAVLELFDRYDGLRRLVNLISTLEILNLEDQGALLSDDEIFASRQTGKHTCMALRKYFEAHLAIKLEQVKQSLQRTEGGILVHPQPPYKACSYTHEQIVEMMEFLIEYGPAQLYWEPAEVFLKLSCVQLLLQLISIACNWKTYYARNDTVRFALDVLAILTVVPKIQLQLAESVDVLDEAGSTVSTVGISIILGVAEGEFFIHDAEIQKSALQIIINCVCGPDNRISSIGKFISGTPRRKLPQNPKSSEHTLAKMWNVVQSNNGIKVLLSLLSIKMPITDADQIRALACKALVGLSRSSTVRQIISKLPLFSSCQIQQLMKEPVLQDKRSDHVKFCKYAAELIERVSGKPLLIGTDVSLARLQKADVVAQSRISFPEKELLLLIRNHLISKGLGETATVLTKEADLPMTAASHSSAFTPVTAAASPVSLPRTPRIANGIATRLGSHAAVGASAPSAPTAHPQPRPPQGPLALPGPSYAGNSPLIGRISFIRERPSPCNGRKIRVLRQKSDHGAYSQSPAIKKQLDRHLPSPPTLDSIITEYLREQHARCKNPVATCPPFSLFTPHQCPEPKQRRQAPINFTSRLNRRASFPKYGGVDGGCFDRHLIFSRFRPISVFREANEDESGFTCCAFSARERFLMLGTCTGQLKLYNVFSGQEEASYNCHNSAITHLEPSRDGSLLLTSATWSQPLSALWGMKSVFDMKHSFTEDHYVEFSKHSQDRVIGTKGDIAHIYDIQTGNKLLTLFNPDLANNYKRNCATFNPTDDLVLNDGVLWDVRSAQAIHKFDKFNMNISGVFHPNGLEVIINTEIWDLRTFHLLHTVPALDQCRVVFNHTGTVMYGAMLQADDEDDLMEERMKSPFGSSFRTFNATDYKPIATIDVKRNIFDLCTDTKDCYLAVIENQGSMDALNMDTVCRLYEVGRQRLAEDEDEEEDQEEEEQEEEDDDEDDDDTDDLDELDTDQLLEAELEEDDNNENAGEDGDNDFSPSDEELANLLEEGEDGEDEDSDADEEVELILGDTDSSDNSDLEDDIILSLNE
UniProt Q13619: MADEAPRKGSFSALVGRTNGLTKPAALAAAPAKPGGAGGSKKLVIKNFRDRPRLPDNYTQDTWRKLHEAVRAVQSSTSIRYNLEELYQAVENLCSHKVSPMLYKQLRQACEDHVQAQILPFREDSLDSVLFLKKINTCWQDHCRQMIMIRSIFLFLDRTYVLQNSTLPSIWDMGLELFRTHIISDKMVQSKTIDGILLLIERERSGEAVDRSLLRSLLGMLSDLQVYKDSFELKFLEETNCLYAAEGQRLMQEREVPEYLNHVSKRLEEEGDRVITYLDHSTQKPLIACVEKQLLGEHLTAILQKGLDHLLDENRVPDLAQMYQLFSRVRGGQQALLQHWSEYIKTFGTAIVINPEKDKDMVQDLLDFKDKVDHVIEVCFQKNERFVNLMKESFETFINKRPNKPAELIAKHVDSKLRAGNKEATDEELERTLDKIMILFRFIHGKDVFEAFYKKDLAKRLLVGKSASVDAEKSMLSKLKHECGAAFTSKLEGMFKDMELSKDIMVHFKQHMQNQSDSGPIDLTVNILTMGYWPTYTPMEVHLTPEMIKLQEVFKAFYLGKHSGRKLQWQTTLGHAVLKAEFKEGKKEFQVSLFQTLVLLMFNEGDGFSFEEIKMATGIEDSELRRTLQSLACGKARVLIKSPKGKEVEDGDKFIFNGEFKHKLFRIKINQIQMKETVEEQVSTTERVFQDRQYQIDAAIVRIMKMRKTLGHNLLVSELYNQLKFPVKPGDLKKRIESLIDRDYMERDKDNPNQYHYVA
UniProt O94986: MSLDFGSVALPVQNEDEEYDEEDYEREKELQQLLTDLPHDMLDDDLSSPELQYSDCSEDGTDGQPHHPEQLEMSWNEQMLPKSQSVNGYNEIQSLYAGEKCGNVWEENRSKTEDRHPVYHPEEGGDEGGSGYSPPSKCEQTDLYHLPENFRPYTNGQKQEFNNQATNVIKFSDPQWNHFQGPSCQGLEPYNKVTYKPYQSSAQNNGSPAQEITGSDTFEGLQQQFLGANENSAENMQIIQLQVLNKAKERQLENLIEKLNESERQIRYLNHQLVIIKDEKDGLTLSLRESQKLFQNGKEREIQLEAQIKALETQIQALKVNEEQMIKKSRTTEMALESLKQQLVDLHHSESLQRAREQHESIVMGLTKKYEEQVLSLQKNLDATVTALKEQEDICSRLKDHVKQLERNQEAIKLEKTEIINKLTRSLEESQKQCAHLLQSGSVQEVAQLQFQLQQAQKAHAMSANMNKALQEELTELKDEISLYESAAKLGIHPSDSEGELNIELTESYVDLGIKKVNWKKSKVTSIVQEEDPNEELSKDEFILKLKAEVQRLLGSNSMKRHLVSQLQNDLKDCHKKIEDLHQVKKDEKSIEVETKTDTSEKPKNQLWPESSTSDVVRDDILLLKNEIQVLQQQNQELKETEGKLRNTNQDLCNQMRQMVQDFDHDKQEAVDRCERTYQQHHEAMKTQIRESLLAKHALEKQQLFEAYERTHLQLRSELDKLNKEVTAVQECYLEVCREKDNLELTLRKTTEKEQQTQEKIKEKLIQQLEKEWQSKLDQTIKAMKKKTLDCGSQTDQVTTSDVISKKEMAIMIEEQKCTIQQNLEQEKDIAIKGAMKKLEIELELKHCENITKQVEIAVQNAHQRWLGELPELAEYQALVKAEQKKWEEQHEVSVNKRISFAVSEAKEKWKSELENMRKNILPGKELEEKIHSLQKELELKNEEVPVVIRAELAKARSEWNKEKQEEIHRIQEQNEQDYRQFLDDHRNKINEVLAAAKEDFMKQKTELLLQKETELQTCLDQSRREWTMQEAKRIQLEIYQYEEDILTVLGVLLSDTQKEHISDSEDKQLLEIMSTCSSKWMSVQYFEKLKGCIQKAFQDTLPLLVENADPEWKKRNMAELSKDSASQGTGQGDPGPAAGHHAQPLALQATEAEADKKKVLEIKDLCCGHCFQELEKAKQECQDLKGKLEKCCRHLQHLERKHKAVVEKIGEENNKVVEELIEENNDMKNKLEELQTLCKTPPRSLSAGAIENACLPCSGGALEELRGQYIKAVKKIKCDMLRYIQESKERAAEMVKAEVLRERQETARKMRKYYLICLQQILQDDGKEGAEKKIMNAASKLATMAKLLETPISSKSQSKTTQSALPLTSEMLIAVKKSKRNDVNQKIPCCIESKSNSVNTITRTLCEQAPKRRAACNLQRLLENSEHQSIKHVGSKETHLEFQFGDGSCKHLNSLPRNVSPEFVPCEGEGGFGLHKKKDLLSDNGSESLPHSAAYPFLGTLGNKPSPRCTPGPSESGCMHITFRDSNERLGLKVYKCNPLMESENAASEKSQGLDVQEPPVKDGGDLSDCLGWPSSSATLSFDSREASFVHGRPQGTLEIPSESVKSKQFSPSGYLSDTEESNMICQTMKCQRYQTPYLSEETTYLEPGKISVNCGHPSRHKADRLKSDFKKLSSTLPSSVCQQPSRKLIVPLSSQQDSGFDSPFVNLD

These are yes or no findings as the source states them, for the method shown. Binding seen in cells or lysates may run through a third protein. A yes stands for co-enrichment or nearness to the bait. Other partners may have been found. No binding means not detected with the bait. Tags and fused reporters may be left off the sequences shown.

In assay [1] the target is T1, ZZ-tagged Plk4 CPB (581–884) (UniProt O00444).
T1 sequence: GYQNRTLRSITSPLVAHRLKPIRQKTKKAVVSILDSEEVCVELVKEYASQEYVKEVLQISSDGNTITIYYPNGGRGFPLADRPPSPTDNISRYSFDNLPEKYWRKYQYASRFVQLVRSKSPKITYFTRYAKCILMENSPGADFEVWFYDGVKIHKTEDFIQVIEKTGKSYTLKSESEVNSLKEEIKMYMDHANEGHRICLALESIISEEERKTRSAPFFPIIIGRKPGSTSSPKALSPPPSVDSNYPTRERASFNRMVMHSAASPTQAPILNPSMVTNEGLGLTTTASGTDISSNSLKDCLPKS
Nature of the assay: affinity purification with mass spectrometry; Expt. 1: lysates of HEK293T cells transfected with ZZ-TEV-Plk4 CPB(581–884) on a human IgG column, eluted after AcTEV digestion with TBSN buffer; SDS-PAGE bands, trypsin, nanoLC-tandem MS.

For assay [2], the target named is T2, FLAG-tagged Plk4 CTD (581–970) (UniProt O00444).
T2 sequence: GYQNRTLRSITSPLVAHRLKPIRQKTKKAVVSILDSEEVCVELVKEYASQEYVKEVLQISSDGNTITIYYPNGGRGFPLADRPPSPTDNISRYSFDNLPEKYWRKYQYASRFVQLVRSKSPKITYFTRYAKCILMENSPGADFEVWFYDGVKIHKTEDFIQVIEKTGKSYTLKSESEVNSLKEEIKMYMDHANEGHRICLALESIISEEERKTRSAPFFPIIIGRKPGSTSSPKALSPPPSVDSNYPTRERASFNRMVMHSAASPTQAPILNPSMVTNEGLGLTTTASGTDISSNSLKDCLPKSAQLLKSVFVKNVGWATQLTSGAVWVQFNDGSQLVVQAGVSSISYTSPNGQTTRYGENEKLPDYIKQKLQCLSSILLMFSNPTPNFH
Nature of the assay: affinity purification with mass spectrometry.

As for “CUL4B (endogenous, HEK293T) (from UniProt Q13620 1-913)”, the binding entry in assay [1] and in assay [2] was “no binding” in each case.

Turning to “DDB1 (endogenous, HEK293T) (from UniProt Q16531 1-1140)”, the binding result in assay [1] and in assay [2] was “binds” each time.

In the case of “VprBP (endogenous, HEK293T) (from UniProt Q9Y4B6 1-1507)”, the binding entry in assay [1] and in assay [2] was “binds” throughout.

In the case of “CUL4A (endogenous, HEK293T) (from UniProt Q13619 1-759)”, the binding entry in assay [1] and in assay [2] was “no binding” in each case.

On to “Cep152 (endogenous, HEK293T) (from UniProt O94986 1-1710)”, for which the binding result in assay [1] and in assay [2] was “binds” throughout.
